In publication PMC13184988 (ACS Chemical Biology, 2026):

Assay: general procedure: Fmoc solid-phase peptide synthesis; Fmoc-amino acid preloaded Wang (4-alkoxybenzyl alcohol) resins, 100-200 mesh; HBTU
Settings: whole synthesis, A280nm

## [L-Trp3]endomorphin-1 (EM-1)
  final HPLC purity: 98.26%

## [D-Trp3]endomorphin-1 (EM-1)
  final HPLC purity: 98.68%
